Laboratory results: PubChem BioAssay AID504784 (Drosophila RNAi Screening Center, 2011)
Purpose: 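Fly genes whose silencing alters how much lipid cells keep in droplets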 (primary screen). Cells: Drosophila Kc167 embryonic cells. Knock-down reagent: long dsRNA against Drosophila genes, about 250 ng dsRNA per well. Timing: 4 days. Challenge: cells fed 400 µM oleic acid bound to BSA. Read-out: 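Cells imaged and segmented; ratio of lipid droplet area to nuclear area, log-transformed, then normalised as a B-score over the screen; higher means more stored lipid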. Direction: droplet/nuclear area B-score: higher = more stored lipid (overstorage).
In all, the deposit lists about 17,000 reagents; shown is a random part of those that have a named target and a result. 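Each column is one replicate's B-score; the combined score over replicates was not deposited, so single values may mislead.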 The numbers tell different reagents against one gene apart. A plus sign joins genes that one reagent is predicted to hit.

The opening 11 records as a preview:
gene knocked down | dsRNA no. | droplet/nuclear area B-score, replicate 1 | droplet/nuclear area B-score, replicate 2 | droplet/nuclear area B-score, replicate 3
CG13771 (GeneID 33933) | 1 | 0.0842 | -1.2 | –
RpS14a (GeneID 47218) | 1 | -0.124 | 2.74 | –
CR30374 (GeneID 10178922) | 1 | 0.926 | 1.05 | –
Mnat9 (GeneID 43726) | 1 | -0.429 | -0.0477 | –
CG3713 (GeneID 50365) | 1 | -1.6 | 0.126 | –
CG32695 (GeneID 31918) | 1 | 0.155 | -0.823 | 0.236
CG18682 (retired record) (GeneID 50098) | 1 | 0.0758 | – | –
CG18682 (retired record) (GeneID 50098) | 2 | -0.439 | 0.00638 | 0.54
Cht2 (GeneID 38223) | 1 | -0.21 | 1.19 | –
ICA69 (GeneID 40331) | 1 | -0.29 | 0.968 | -0.173
CG7377 (GeneID 2768978) | 1 | -0.00168 | 0.456 | –

Results, from the start:
gene knocked down | dsRNA no. | droplet/nuclear area B-score, replicate 1 | droplet/nuclear area B-score, replicate 2 | droplet/nuclear area B-score, replicate 3
CG13771 (GeneID 33933) | 1 | 0.0842 | -1.2 | –
RpS14a (GeneID 47218) | 1 | -0.124 | 2.74 | –
CR30374 (GeneID 10178922) | 1 | 0.926 | 1.05 | –
Mnat9 (GeneID 43726) | 1 | -0.429 | -0.0477 | –
CG3713 (GeneID 50365) | 1 | -1.6 | 0.126 | –
CG32695 (GeneID 31918) | 1 | 0.155 | -0.823 | 0.236
CG18682 (retired record) (GeneID 50098) | 1 | 0.0758 | – | –
CG18682 (retired record) (GeneID 50098) | 2 | -0.439 | 0.00638 | 0.54
Cht2 (GeneID 38223) | 1 | -0.21 | 1.19 | –
ICA69 (GeneID 40331) | 1 | -0.29 | 0.968 | -0.173
CG7377 (GeneID 2768978) | 1 | -0.00168 | 0.456 | –
CG14024 (GeneID 33760) | 1 | -0.751 | -0.495 | –
CG14024 (GeneID 33760) | 2 | -0.000898 | -1.49 | –
Tm2 (GeneID 41853) | 1 | 0.725 | 1.65 | –
CG7335 (GeneID 40203) | 1 | -0.262 | 1.35 | –
CG12974 (GeneID 40350) | 1 | -0.129 | 0.131 | –
CG10730 (GeneID 35291) | 1 | 0.437 | 1.66 | –
Sgt (GeneID 35052) | 1 | 0.608 | – | –
Ets98B (GeneID 43334) | 1 | 0.0766 | -0.0874 | -0.592
CkIIbeta (GeneID 32132) | 1 | -3.56 | -1.4 | -1.68
Obp83ef (GeneID 40747) | 1 | 1.28 | 0.06 | –
MFS16 (GeneID 37427) | 1 | -1.46 | 0.894 | –
Rrp6 (GeneID 41798) | 1 | 0.274 | 0.0385 | –
Dlip2 (GeneID 40579) | 1 | -0.0558 | -1.35 | –
Pif1A + Pif1B | 1 | -1.39 | 0.411 | –
Pif1A + Pif1B | 2 | – | -0.407 | –
Pif1A + Pif1B | 3 | 0.629 | -0.284 | –
CG9815 (GeneID 37710) | 1 | 0.203 | 1.28 | –
Exo70 (GeneID 38959) | 1 | -1.46 | -0.22 | –
mRpL16 (GeneID 31150) | 1 | 0.0431 | -0.681 | –
Cbs (GeneID 33081) | 1 | 0.803 | -0.161 | –
Cpr67Fa1 (GeneID 39223) | 1 | 1.37 | -0.037 | –
CG31229 (GeneID 318636) | 1 | 1.52 | 0.373 | –
Ulp1 (GeneID 32910) | 1 | -0.825 | -1.16 | –
CG18540 (GeneID 37097) | 1 | -2.76 | 0.816 | –
CG42361 (GeneID 37936) | 1 | -0.334 | 1.34 | –
gw (GeneID 43808) | 1 | -0.186 | 0.685 | –
gw (GeneID 43808) | 2 | -0.975 | 0.612 | –
CG31274 + MESK4 | 1 | 0.562 | -1.71 | –
CG11566 (retired record) + stg1 | 1 | 0.483 | 0.387 | –
CG11566 (retired record) + stg1 | 2 | 0.69 | -0.00274 | –
CG11566 (retired record) + stg1 | 3 | -1.21 | -0.793 | –
CG11566 (retired record) + stg1 | 4 | -0.487 | -0.363 | –
retn (GeneID 45976) | 1 | 0.248 | 0.0493 | –
EMC8-9 (GeneID 37635) | 1 | 1.05 | 1.19 | –
yellow-e3 (GeneID 41651) | 1 | -2.16 | -0.114 | –
CG4053 (GeneID 42070) | 1 | 0.716 | -1.61 | -0.318
lncRNA:CR32690 (GeneID 10178944) | 1 | 0.751 | -1.09 | –
ed (GeneID 33619) | 1 | -3 | -1.83 | –
ed (GeneID 33619) | 2 | 0.0145 | -0.742 | –
ed (GeneID 33619) | 3 | -0.429 | -2.41 | –
ed (GeneID 33619) | 4 | 2.47 | -0.482 | –
loaf (GeneID 39325) | 1 | -1.97 | -1.17 | –
Ubi-p63E (GeneID 38456) | 1 | -0.281 | -1.88 | –
CG8112 (GeneID 41033) | 1 | -0.512 | -0.441 | –
SkpC (GeneID 32996) | 1 | 0.676 | -1.08 | –
CG31550 (GeneID 40661) | 1 | -1.17 | 0.48 | –
CG31550 (GeneID 40661) | 2 | 1.95 | -0.312 | –
spag4 (GeneID 34581) | 1 | -0.419 | 1.21 | –
ClpP (GeneID 34402) | 1 | -0.695 | 0.423 | –
CycE (GeneID 34924) | 1 | -1.47 | -2.11 | –
CycE (GeneID 34924) | 2 | -1.81 | 2.81 | –
psidin (GeneID 42389) | 1 | 1.59 | 0.0491 | –
CG14185 (GeneID 40197) | 1 | 0.644 | 0.11 | –
tHMG2 (GeneID 42651) | 1 | -1.63 | -0.603 | –
snRNA:U1:95Cc (GeneID 3772462) | 1 | -2.58 | -3.11 | –
Paris (GeneID 33657) | 1 | 0.616 | -0.0442 | –
pie (GeneID 44315) | 1 | -0.17 | 0.27 | –
miple2 (GeneID 44787) | 1 | -0.712 | 0.688 | –
CG5674 (GeneID 35072) | 1 | 3.51 | 3.15 | –
CG5674 (GeneID 35072) | 2 | -1.75 | -0.0777 | –
upd3 (GeneID 3346149) | 1 | -1.38 | -1.67 | –
upd3 (GeneID 3346149) | 2 | 2.27 | 0.572 | –
upd3 (GeneID 3346149) | 3 | -0.00197 | 0.593 | –
CG2790 (GeneID 37992) | 1 | -0.365 | -0.0648 | –
Vha16-1 (GeneID 44307) | 1 | -1.87 | -0.379 | –
Or42a (GeneID 35514) | 1 | 0.00966 | -0.192 | –
stnB + stnA | 1 | 1.28 | -0.959 | –
stnB + stnA | 2 | 0.996 | 0.315 | –
stnB + stnA | 3 | 1.12 | -0.266 | –
Uba3 (GeneID 36539) | 1 | -2.47 | 0.927 | –
HP4 (GeneID 38887) | 1 | -0.000199 | -0.484 | –
CG33170 (GeneID 326267) | 1 | -0.725 | -0.108 | –
CG33170 (GeneID 326267) | 2 | -0.499 | 0.966 | –
hook (GeneID 35169) | 1 | 0.0641 | 0.524 | –
Ppt1 (GeneID 31805) | 1 | 1.79 | -0.576 | –
ntc (GeneID 38443) | 1 | 0.394 | -0.0857 | –
Mctp (GeneID 37165) | 1 | -0.821 | 0.605 | –
Mctp (GeneID 37165) | 2 | -0.411 | -1.52 | –
ovo (GeneID 31429) | 1 | 0.822 | 8.03 | -0.971
ovo (GeneID 31429) | 2 | – | 0.126 | –
Vps4 (GeneID 32777) | 1 | 1.2 | 0.544 | –
aux (GeneID 40527) | 1 | 0.907 | -0.0734 | 1.08
Oat (GeneID 40145) | 1 | 0.324 | 0.263 | -1.06
Prosbeta5 (GeneID 45269) | 1 | -0.457 | 0.548 | –
Akr1B (GeneID 39304) | 1 | -0.595 | -0.406 | –
CG13795 (GeneID 34049) | 1 | 0.888 | 1.2 | –
CG34444 (GeneID 5740745) | 1 | 1.42 | 0.034 | –
CG6118 (GeneID 41884) | 1 | 1.7 | 3.31 | –
CG6118 (GeneID 41884) | 2 | -1.35 | -2.26 | –
Nbr (GeneID 35385) | 1 | 0.0482 | -0.912 | –
CG32713 (GeneID 318166) | 1 | 1.1 | 1.39 | –
Fdh (GeneID 41311) | 1 | 0.0532 | 0.282 | –
CG13071 (GeneID 39781) | 1 | -0.429 | -0.87 | –
CG17375 (GeneID 33956) | 1 | -2.01 | -0.793 | –
